Patent US8629132B2, “Kinase inhibitors” (Genosco, priority 2009, dated 2014)
At least one read-out could not be matched to a standard name with certainty.

Columns and labels:
Assay type in all cases: cell-based, human
[1] = test system: HEL cells; assay: Cell viability assay: JAK2 inhibition
Procedure: Compounds of the invention are tested for their effects on JAK2 inhibition in human erythroleukemic cell line (HEL) to illustrate potential efficacy at the cellular level. The Janus-associated kinase (JAK) family, comprised of four different protein tyrosine kinases JAK1, JAK2, JAK3, and TYK2, plays an important role in cellular survival, proliferation, and differentiation. V617F, a unique mutation in the JAK2 gene (a valine-to-phenylalanine substitution) results in constitutive kinase activity and promotes deregulated hematopoiesis. JAK2 V617F is frequently detected in myeloproliferative disorders (MPDs), a group of clonal hematopoietic stem cell disorders that include polycythemia vera (PV), essential thrombocythemia (ET), and idiopathic myelofibrosis (IMF), all of which have the potential to transform to acute myeloid leukemia. […]
Compounds of the present invention were tested for their effects on viability of HEL cells. […] After a 72-hour incubation period at 37° C., viability of cells was measured using the ATPLite 1 step assay (Perkin-Elmer™) that is based on the quantification of ATP from viable cells. […] IC50 values were calculated using nonlinear regression and defined as the concentration needed for a 50 reduction in luminescence or absorbance treated versus untreated control cells (Prism™ Software).

[2] = test system: MV4-11 cells; assay: Cell viability assay: FLT3-ITD-positive cells
Procedure: Compounds of the invention were tested for their effects on inhibition of FLT3-ITD in human acute leukemia cell line (MV4-11). FLT3 is primarily expressed in immature hematopoietic progenitor as well as in mature myeloid cells. It belongs to type III receptor tyrosine kinase (RTK) family including KIT, FMS, and PDGFR. It is activated by binding to FL, which leads to increased kinase activity and activation of downstream signaling pathway including STATS, Ras, and PI3Kinase.
Compounds of the invention were tested for cell viability effect on MV4-11 cells. For cell viability assay, MV4-11 cells expressing human FLT3-ITD were obtained from the American Type Culture Collection (ATCC, Manassas, Va.). This cell line was maintained with an Roswell Park Memorial Institute (RPMI) medium (HyClone™) containing 10 bovine calf serum (BCS; Hyclone™) supplemented iron. The MV4-11 cells were seeded at 2×10^4 cells in 96-well culture plates, and serially diluted compound was then added. After a 72-hour incubation period at 37° C., cell viability was measured using the ATPLite 1 step assay (Perkin-Elmer™) that is based on the quantification of ATP from viable cells. […] IC50 values were calculated using nonlinear regression and defined as the concentration needed for a 50 reduction in luminescence or absorbance treated versus untreated control cells (Prism™ Software).

[3] = test system: MTC-TT; assay: Cell viability assay: RET inhibition
Procedure: To address RET dependent cell viability, the medullary thyroid carcinoma cell line, MTC-TT representing MEN2A was utilized to test compounds of the present invention. MTC-TT were cultured at RPMI containing 15 bovine calf serum (Hyclon™ of Thermo™) and supplemented with 2 mM L-Glutamine The cells were grown at a density of 5×10^4 cells/100 μL/well in duplicate in 96-well plates for one day and treated with different concentrations of test compound. Cell viability for MTC-TT two days after drug treatment was measured by Cell Titer 96 Aqueous One Solution Reagent (Promega™) according to the manufacture instructions.

## COc1cc(Nc2ncc(C)c(-n3cc(C)c(CO)c3)n2)cc(OC)c1OC [Compound 21, (4-methyl-1-(5-methyl-2-(3,4,5-trimethoxyphenylamino)pyrimidin-4-yl)-1H-pyrrol-3-yl)methanol]
[1]
  higher inhibition in IC50 measurement than Sorafenib: about 10 time

## COc1cc(Nc2ncc(C)c(-n3cc(C)c(CN4CC(OC(=O)C(C)(C)C)C4)c3)n2)cc(OC)c1OC [Compound 93, 1-((4-methyl-1-(5-methyl-2-(3,4,5-trimethoxyphenylamino)pyrimidin-4-yl)-1H-pyrrol-3-yl)methyl)azetidin-3-yl pivalate]
[2]
  higher inhibition in IC50 than Sunitinib and PKC-412: more than 6 time

## Cc1cn(-c2nc(Nc3cc(C)c(OCCO)c(C)c3)ncc2C)cc1CN(C)C [Compound 121, 2-(4-(4-(3-((dimethylamino)methyl)-4-methyl-1H-pyrrol-1-yl)-5-methylpyrimidin-2-ylamino)-2,6-dimethylphenoxy)ethanol]
[3]
  higher inhibition in IC50 measurement than Vandetanib and Sunitinib: > 2 time
